Experiment [1] addresses T1, FliP-3×FLAG (chromosomally encoded, expressed from the native fliP locus) (S. enterica serovar Typhimurium LT2) (UniProt P54700).
T1 sequence: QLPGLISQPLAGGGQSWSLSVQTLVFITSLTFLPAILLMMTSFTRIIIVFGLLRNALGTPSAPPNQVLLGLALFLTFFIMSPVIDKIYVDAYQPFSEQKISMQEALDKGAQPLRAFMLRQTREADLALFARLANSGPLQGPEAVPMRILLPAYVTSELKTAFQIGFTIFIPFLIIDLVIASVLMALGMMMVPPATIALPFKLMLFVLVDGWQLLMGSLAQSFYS
Put plainly: affinity purification with mass spectrometry; FLAG pull down of chromosomal FliP-3×FLAG from crude membranes of a rod− (ΔflgBC) strain, 0.5% DDM, anti-FLAG M2 affinity gel 4 h at 4°C in PBS with 0.1% DDM, eluted with FLAG peptide; BN-PAGE separation and LC-MS/MS of bands.

Experiment [2] concerns the target T2, FliP-3×FLAG (chromosomally encoded, expressed from the native fliP locus) (S. enterica serovar Typhimurium LT2), P54700.
T2 chain: T1 sequence
The experiment is described as above. The settings on record: remark: other sources report otherwise.

This passage reports binding results from paper PMC5542435.

Results are given in words; binding and its absence hold for the method and conditions named. Binding seen in cells or lysates may run through a third protein. A yes stands for co-enrichment or nearness to the bait. Other partners may have been found. Tags and fused reporters may be left off the sequences shown.

Regarding “FliO (untagged, endogenous in S. Typhimurium) (from UniProt A0A2X4T7I8)”, the binding result in experiment [1] is listed as “binds”.

B1: FliG (endogenous in S. Typhimurium), P0A1J9 1-331 (protein)
chain: MSNLSGTDKSVILLMTIGEDRAAEVFKHLSTREVQALSTAMANVRQISNKQLTDVLSEFEQEAEQFAALNINANEYLRSVLVKALGEERASSLLEDILETRDTTSGIETLNFMEPQSAADLIRDEHPQIIATILVHLKRSQAADILALFDERLRHDVMLRIATFGGVQPAALAELTEVLNGLLDGQNLKRSKMGGVRTAAEIINLMKTQQEEAVITAVREFDGELAQKIIDEMFLFENLVDVDDRSIQRLLQEVDSESLLIALKGAEPPLREKFLRNMSQRAADILRDDLANRGPVRLSQVENEQKAILLIVRRLAETGEMVIGSGEDTYV
Consider B1, for which the binding result in experiment [2] is “binds”.

B2: FliR (untagged, endogenous in S. Typhimurium) (protein, UniProt P54702 1-264)
chain: MIQVTSEQWLYWLHLYFWPLLRVLALISTAPILSERAIPKRVKLGLGIMITLVIAPSLPANDTPLFSIAALWLAMQQILIGIALGFTMQFAFAAVRTAGEFIGLQMGLSFATFVDPGSHLNMPVLARIMDMLAMLLFLTFNGHLWLISLLVDTFHTLPIGSNPVNSNAFMALARAGGLIFLNGLMLALPVITLLLTLNLALGLLNRMAPQLSIFVIGFPLTLTVGIMLMAALMPLIAPFCEHLFSEIFNLLADIVSEMPINNNP
Consider B2, for which the binding result in experiment [1] is reported as “binds”.
